The target in this assay is His-tagged NudC, Q9Y266. As to the kind of experiment: pull-down; Ni-NTA magnetic resin pull-down of His-tagged NudC from lysate of transfected HEK293T cells (48 h; 25 mM Tris, 150 mM NaCl, 1.0 mM EDTA, 1% NP-40, 5% glycerol, pH 7.4); immunoblot of the elution. The following applies: remark: other sources report otherwise. For orientation: A western blot detects proteins with antibodies after separation by electrophoresis.

No constants are given. Whether binding was seen depends on the method and setting. In cells and extracts the contact can be indirect. Some binding calls cover weakened binding; strength is not graded here.

B1: lissencephaly 1 (Lis1), endogenous in HEK293T cells, P43034 1-410 (protein)
chain: MVLSQRQRDELNRAIADYLRSNGYEEAYSVFKKEAELDVNEELDKKYAGLLEKKWTSVIRLQKKVMELESKLNEAKEEFTSGGPLGQKRDPKEWIPRPPEKYALSGHRSPVTRVIFHPVFSVMVSASEDATIKVWDYETGDFERTLKGHTDSVQDISFDHSGKLLASCSADMTIKLWDFQGFECIRTMHGHDHNVSSVAIMPNGDHIVSASRDKTIKMWEVQTGYCVKTFTGHREWVRMVRPNQDGTLIASCSNDQTVRVWVVATKECKAELREHEHVVECISWAPESSYSSISEATGSETKKSGKPGPFLLSGSRDKTIKMWDVSTGMCLMTLVGHDNWVRGVLFHSGGKFILSCADDKTLRVWDYKNKRCMKTLNAHEHFVTSLDFHKTAPYVVTGSVDQTVKVWECR
As for B1, the binding result is “binds”.

The record behind these values is publication PMC7795690.
